Experimental data reported in the GenesisPotency data set.
About 910 (0.23%) of roughly 390,000 compounds were called active. Not shown: some 5% with an inconclusive outcome. Calls come from the whole dose curve; as a rule, active = well fitted inhibition curve with a large enough effect; inconclusive = small, poorly fitted or top-dose-only effect; inactive = no such curve, though single readings can be large or run the other way. This is one part of the list.

Target: T1, Ubiquitin carboxyl-terminal hydrolase 1, Homo sapiens (UniProt O94782)
T1 sequence (whole entry): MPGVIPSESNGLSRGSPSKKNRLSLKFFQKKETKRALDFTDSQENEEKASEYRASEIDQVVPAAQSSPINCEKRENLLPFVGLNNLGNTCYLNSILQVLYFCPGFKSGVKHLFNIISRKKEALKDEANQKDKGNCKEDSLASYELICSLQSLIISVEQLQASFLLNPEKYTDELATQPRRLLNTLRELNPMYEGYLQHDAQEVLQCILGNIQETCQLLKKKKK
Assay: Inhibitors of USP1/UAF1: Primary Screen

| Compound | outcome |
| --- | --- |
| COc1cc(/C=C2\S/C(=N/S(=O)(=O)c3ccccc3)NC2=O)c([N+](=O)[O-])cc1OC | inactive |
